These are yes or no findings as the source states them, for the method shown. Some binding calls cover weakened binding; strength is not graded here.
What was measured:
[1] = biological target: full-length (FL) human vimentin (human) (UniProt P08670); assay: cross-linking; cross-links identified by mass spectrometry; 14N and 15N dimers prepared in 6.2 M urea, mixed 1:1, dialysed into 2 mM HEPES pH 8.2; 0.3 mg/mL; DSG, DSS, DSPU, DSBU at 50x; trypsin, LC-MS, LinX; inter- or intradimeric by the α-ratio (light-only sample: 0.15 mg/mL, DSG, DSPU, DSBU at 100x); both purified
[2] = biological target: full-length (FL) human vimentin (human) (UniProt P08670); assay: SEC-SAXS; FL vimentin 2.8 mg/mL, Superose 6 Increase 3.2/300, 2 mM HEPES pH 8.2, 1% sucrose; both purified
[3] = biological target: full-length (FL) human vimentin (human) (UniProt P08670); assay: cross-linking; data not shown; 14N and 15N tetramers assembled separately in LS buffer, mixed 1:1, cross-linked with DSG and DSS, MS and LinX analysis: test of exchange of dimers between tetramers; both purified

Amino acid sequences for entries named in this document (tags omitted).
UniProt P08670: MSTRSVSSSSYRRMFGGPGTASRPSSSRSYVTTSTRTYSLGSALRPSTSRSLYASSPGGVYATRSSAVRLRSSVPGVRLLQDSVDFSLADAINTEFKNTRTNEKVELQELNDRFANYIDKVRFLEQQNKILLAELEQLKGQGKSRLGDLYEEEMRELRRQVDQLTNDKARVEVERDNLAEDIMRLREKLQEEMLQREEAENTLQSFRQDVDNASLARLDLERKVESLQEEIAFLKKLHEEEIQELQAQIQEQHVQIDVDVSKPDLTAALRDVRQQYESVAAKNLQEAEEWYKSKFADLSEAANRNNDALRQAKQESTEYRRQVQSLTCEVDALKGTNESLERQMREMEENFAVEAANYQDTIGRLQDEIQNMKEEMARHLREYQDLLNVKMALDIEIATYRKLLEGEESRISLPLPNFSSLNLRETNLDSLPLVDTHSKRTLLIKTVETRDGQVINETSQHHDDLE

Measured: binding

full-length (FL) human vimentin (from UniProt P08670 1-466)
binds: all assays above

Reference: paper PMC10232555
